PubChem BioAssay AID1688 (National Center for Advancing Translational Sciences (NCATS), 2009)
About 2,400 (1.1%) of roughly 220,000 compounds were called active. Inconclusive results, whose numbers are uncertain, are shown with a selection of clear calls. The call rests on the fitted dose curve; in most records, active means well fitted inhibition curve with a large enough effect; inconclusive means small, poorly fitted or top-dose-only effect, or effect the other way; inactive means no such curve, though single readings can be large or run the other way. A potency beside an inconclusive call is a rough fit, not a confirmed value.

Assay: qHTS Multiplex Assay to Identify Dual Action Probes in a Cell Model of Huntington: Aggregate Formation (GFP); further: nearly all actives have a fitted effect of over 60% in size
Conditions: PC12 HttQ103-GFP aggregates, Acumen cytometry, 40 h; activity change, negative = inhibition: at 46.1 µM (top of the series) unless noted
In short: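 Inducible Q103 Huntingtin exon 1–GFP PC12 line, 1500 cells/well in phenol red free DMEM with 5% equine and 5% calf serum. Tebufenozide 100 nM induced expression; compounds titrated; aggregates quantified by cytometry.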
On the % scale 0 is the no-effect control and ±100 the full control effect; potency means the concentration at half of the fitted maximal effect.

SMILES	Potency	activity change, negative = inhibition
O=C1C(Cl)=C(NCC2CCCO2)C(=O)N1CCc1ccccc1 (stereo not given)	inconclusive: 5.62 µM [activator, single point]	–
COc1ccccc1C(=O)NC(=Nc1nc2ccccc2o1)NC(=O)c1ccccc1OC	active: 10 µM	–
Cc1ccc(/C=C/C(=O)N2CCN(Cc3ccccc3)CC2)o1	inconclusive: 12.6 µM [activator, single point]	–
COc1ccc(OCCC(=O)Nc2nccs2)cc1	–	inactive: 15.4%
Clc1ccc(-c2noc(CSc3nnc(Cc4cccs4)n3-c3ccccc3)n2)cc1	inconclusive: 28.2 µM [inhibitor, single point]	–
CCCCN(C(=O)/C=C/c1ccco1)c1c(N)n(CCC)c(=O)[nH]c1=O	inconclusive: 28.2 µM [inhibitor, partial curve, poor fit]	–
CCCOc1ccc(C(CC(=O)O)NC(=O)c2sc3ccccc3c2Cl)cc1 (stereo not given)	–	inactive: -23%
CN(NC(=O)c1ccc(Cl)cc1)c1nc(-c2ccccc2)nnc1C(F)(F)F	inconclusive: 11.2 µM [inhibitor, single point]	–
O=C(CSc1nnc(Cc2ccccc2)n1Cc1ccco1)NC12CC3CC(CC(C3)C1)C2	inconclusive: 35.5 µM [inhibitor, single point]	–
COc1ccc(S(=O)(=O)NCc2ccco2)cc1-c1nnc2c3ccccc3c(C)nn12	–	inactive: 4.49%
Cc1sc(NC(=O)c2ccco2)c(C(c2cccnc2)N2CCN(CCO)CC2)c1C (stereo not given)	–	inactive: -20.2%
CC(C)NC(=O)C1CCN(c2ccc(S(=O)(=O)N3CCOCC3)cc2Cl)CC1	–	inactive: 19% [at 9.22 µM]
CC1C/C(=N\NC(=O)c2ccc(NS(=O)(=O)c3ccc(Br)cc3)cc2)CC(C)(C)C1 (stereo not given)	–	inactive: 8.39%
O=C(Nc1nc2c(s1)CN(Cc1ccccc1)CC2)c1c(F)cccc1F	–	inactive: 9.35%
Cc1cn(C(=O)c2ccccc2)c(=S)n1-c1ccc(Cl)cc1	–	inactive: 6.71%
O=c1[nH]c2ccc(NS(=O)(=O)c3ccc([N+](=O)[O-])cc3)cc2[nH]1	inconclusive: 11.2 µM [activator, partial curve, poor fit]	–
Cc1ccc(C(C(=O)NC2CCCC2)N(C(=O)CCC(=O)Nc2cc(C)on2)c2ccccc2)cc1 (stereo not given)	–	inactive: -4.07%
Cc1cccc(NC(=O)c2ccc(N3CCOCC3)c([N+](=O)[O-])c2)n1	–	inactive: -25.8%
CC1(C)CC(=O)C(C=Nc2ccc(C(=O)c3ccccc3)cc2N=CC2=C(O)CC(C)(C)CC2=O)=C(O)C1	inconclusive: 25.1 µM [inhibitor, single point]	–
Cc1ccc(NC(=O)CSc2nc(NS(=O)(=O)c3ccc(C)cc3)cc(=O)[nH]2)cc1	–	inactive: -9.54%
CCOC(=O)c1sc(N)c(C(=O)OCC)c1COC(=O)C1CC(=O)N(Cc2ccco2)C1 (stereo not given)	inconclusive: 6.31 µM [inhibitor, single point]	–
Cn1c(O)c(N=NC(=O)c2cc(-c3cccs3)nc3ccccc23)c2ccccc21	inconclusive: 1.26 µM [inhibitor, single point]	–
CCOC(=O)c1[nH]c2ccccc2c1NC(=O)Nc1ccc(OC)cc1	inconclusive: 1.26 µM [inhibitor, partial curve]	–

Looked up by structure from the entries so far (2):
SMILES	Potency	activity change, negative = inhibition
CCOC(=O)c1sc(N)c(C(=O)OCC)c1COC(=O)C1CC(=O)N(Cc2ccco2)C1 (stereo not given)	inconclusive: 6.31 µM [inhibitor, single point]	–
Cc1ccc(C(C(=O)NC2CCCC2)N(C(=O)CCC(=O)Nc2cc(C)on2)c2ccccc2)cc1 (stereo not given)	–	inactive: -4.07%

The listing continues:

SMILES	Potency	activity change, negative = inhibition
N/C(=N\N=C\c1ccc(Cl)cc1)N/N=C/c1ccc(Cl)cc1	–	inactive: -15.7%
COc1ccc(S(=O)(=O)N2CCCC(C(=O)NCCC3=CCCCC3)C2)cc1 (stereo not given)	inconclusive: 0.562 µM [inhibitor, single point]	–
COc1ccc(C(C)=O)cc1CSc1nc2cc(C(=O)O)ccc2c(=O)n1Cc1ccccc1	inconclusive: 17.8 µM [activator, partial curve]	–
CCN1C(=O)C(CC(=O)Nc2ccc(OC)cc2)N(CCc2ccc(OC)cc2)C1=S (stereo not given)	inconclusive: 17.8 µM [inhibitor, single point]	–
O=C(Nc1ccc(N2CCOCC2)c2nonc12)C1CCCC1	–	inactive: -0.512%
O=S(=O)(NCc1cn2ccccc2n1)c1cccs1	–	inactive: -14.8% [at 9.22 µM]
CC(=O)C1=C(C)NC2=C(C(=O)CC(C)(C)C2)C1C (stereo not given)	inconclusive: 15.8 µM [inhibitor, single point]	–
COc1cc(C(=S)N2CCC(C)CC2)ccc1O	–	inactive: -10.4%
O=[N+]([O-])c1cccc2c(N3CCCC3)ccnc12	inconclusive: 35.5 µM [inhibitor, single point]	–
CC(=O)c1ccc(OC(=O)CCN2c3ccccc3Sc3ccccc32)cc1	inconclusive: 3.16 µM [inhibitor, partial curve]	–
O=[N+]([O-])c1ccc2ncnc(Nc3ccc4c(c3)OCCO4)c2c1	active: 14.1 µM	–
Cn1c(N)c(C(=O)COC(=O)c2ccc(Cl)nc2)c(=O)n(C)c1=O	–	inactive: -6.65%
COc1ccc(CC(=O)Nc2ccc(S(=O)(=O)NCC3CCCO3)cc2)cc1 (stereo not given)	inconclusive: 11.2 µM [inhibitor, single point]	–
CS(=O)(=O)n1nc(-c2ccc(Cl)cc2)nc1SCc1ccccc1	inconclusive: 20 µM [inhibitor, single point]	–
Cc1ccc(S(=O)(=O)NCc2ccc(C(=O)NCCN(Cc3ccccc3)C(C)C)cc2)cc1	inconclusive: 11.2 µM [inhibitor, partial curve]	–
COc1ccc(NC(=O)Cn2ncc(Cl)c(Cl)c2=O)cc1S(=O)(=O)N1CCOCC1	inconclusive: 35.5 µM [inhibitor, single point]	–
Nc1c(C(=O)Nc2ccc(S(=O)(=O)N3CCCC3)cc2)sc2nc3cc4c(cc3cc12)CCC4	active: 14.1 µM	–
CN(C(=S)Nc1cccnc1)c1ccc(O)cc1	inconclusive: 35.5 µM [activator, single point]	–
Cc1[nH]c2ccccc2c1SCCNC(=O)c1ccc(Br)o1	active: 25.1 µM	–
CCNc1nc(NCC)n2c(SCC(=O)N3CC4(C)CC3CC(C)(C)C4)nnc2n1 (stereo not given)	inconclusive: 5.62 µM [inhibitor, single point]	–
COc1ccc(NC(=S)NC(NC(=O)c2cccc3ccccc23)C(Cl)(Cl)Cl)c([N+](=O)[O-])c1 (stereo not given)	inconclusive: 31.6 µM [inhibitor, single point]	–
COc1ccc(C(=S)N2CCN(c3cccc(Cl)c3)CC2)c(OC)c1	–	inactive: -10.4%
